# Assay results from PMC12040169 (PLOS Biology, 2025).
# This is one part of the list.
# System: T1, CTL2-GFP (C. trachomatis L2/434/Bu, GFP-expressing)
# T1 construct: L2/434/Bu, GFP-expressing
# Parameters: species or system HeLa; Intracellular C. trachomatis growth in HeLa cells, bulk GFP fluorescence relative to DMSO
# Conditions: bulk GFP, single well; 28.5 h, 10 µM; inhibitor
row,SMILES,% of control remaining [%]
1,Cc1nc(=O)c(-c2ccccc2)c(C)n1-c1cccc(C(=O)O)c1 [CBK286965],129.285
2,CC(C)(C)NC(=O)Cn1c(=O)n(Cc2cccs2)c2ncccc21 [CBK283844],110.816
3,CN(C)CCOC(=O)c1ccc2[nH]c3c(c2c1)CSCC3 [CBK009731C],100
4,CCNS(=O)(=O)c1ccc(CCC(=O)Nc2ccc3c(c2)OCO3)cc1 [CBK268367],146.366
5,Cc1cc(CNC(=O)c2ccc3c(c2)OCO3)c2ccccc2n1 [CBK270014],99.8325
6,COc1ccc(C2(C(=O)NCc3ccc(-c4ccc(C(N)=O)c(C)n4)cc3)CCCC2)cc1 [CBK285647],42.5522
7,Fc1ccc(Sc2nc3ccccc3nc2N2CCCC2)cc1 [CBK089543],98.1829
8,COCC(=O)NC[C@H]1C[C@@H]2CCN1C[C@@H]2c1cc(-c2ccccc2)nc(C)n1 [CBK289123],117.924
9,Cc1cc(C)nc(Nc2n[nH]c(-c3ccc(N)cc3)n2)n1 [CBK267131],173.055
10,CCCOC1CCCN(S(=O)(=O)c2cnc3ccsc3c2)C1 (stereo not drawn) [CBK306367],118.108
11,Cc1noc(C)c1NC(=O)N(Cc1ccc2ccccc2c1)CC1CCNCC1 [CBK049774],61.7987
12,CCn1c2cc(C)sc2c2cnn(Cc3cccnc3)c(=O)c21 [CBK284169],109.14
13,CN(C)[C@H]1CC[C@@H](Cc2ccccc2)C[C@@H]1NC(=O)c1ccc(Cl)c(Cl)c1 [CBK012488],53.5609
14,N#Cc1cc2c(nc1SCC(O)COCc1ccccc1)CCCC2 (stereo not drawn) [CBK265967],89.283
15,CCN(C(=O)c1ccc(C)nc1)[C@H]1CCO[C@@H](c2cccc(-c3cc(F)cc(F)c3)c2)C1 [CBK285856],118.354
16,Cc1cccc(C)c1NC(=O)CSc1nnc(-c2cccnc2)n1Cc1ccccc1 [CBK265620],105.535
17,N#C/C(=C/c1ccc(OCc2cccc(C(=O)O)c2)cc1)c1ccc([N+](=O)[O-])cc1 [CBK266626],107.729
18,O=c1[nH]c2ncc(-c3cccc4cccnc34)nc2n1C1CCCCC1 [CBK064215],106.085
19,Cc1cccn2c(=O)c(/C=C3\SC(=S)N(C(C)c4ccccc4)C3=O)c(NCCCn3ccnc3)nc12 (stereo not drawn) [CBK263836],141.493
20,O=C(CSc1ccc(Cl)cc1)Nc1cc(C(=O)O)cc(C(=O)O)c1 [CBK266531],112.024
21,COc1ccc(OCCNC(=O)c2ccccc2-n2cccc2)cc1 [CBK149592],104.981

# Excerpt, entries 20 to 21
row,SMILES,% of control remaining [%]
20,O=C(CSc1ccc(Cl)cc1)Nc1cc(C(=O)O)cc(C(=O)O)c1 [CBK266531],112.024
21,COc1ccc(OCCNC(=O)c2ccccc2-n2cccc2)cc1 [CBK149592],104.981
